# In paper PMC12732632:
# The chains behind the UniProt entries cited, without tags or fusion partners. Where a name states a change or a piece, a line headed by the entry shows the natural chain unless it says otherwise. A line that says so, or that is headed by a name, gives the form on record, which may keep a tag or linker.
# UniProt P07451: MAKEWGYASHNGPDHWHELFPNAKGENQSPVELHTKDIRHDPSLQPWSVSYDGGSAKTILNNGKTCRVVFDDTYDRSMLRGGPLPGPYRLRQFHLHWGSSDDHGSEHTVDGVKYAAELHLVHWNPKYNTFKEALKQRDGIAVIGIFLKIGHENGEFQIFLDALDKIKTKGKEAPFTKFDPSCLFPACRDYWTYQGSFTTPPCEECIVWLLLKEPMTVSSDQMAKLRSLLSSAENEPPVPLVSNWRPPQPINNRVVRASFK
# C-terminus-tagged mutCA3 (P07451, form named): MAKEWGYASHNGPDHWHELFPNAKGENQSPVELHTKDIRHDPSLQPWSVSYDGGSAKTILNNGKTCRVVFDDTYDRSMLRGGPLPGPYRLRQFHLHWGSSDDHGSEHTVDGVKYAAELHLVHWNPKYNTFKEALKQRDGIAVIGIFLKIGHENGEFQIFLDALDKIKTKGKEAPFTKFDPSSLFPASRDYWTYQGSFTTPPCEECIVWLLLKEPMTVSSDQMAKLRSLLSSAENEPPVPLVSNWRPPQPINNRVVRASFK
# UniProt O95817: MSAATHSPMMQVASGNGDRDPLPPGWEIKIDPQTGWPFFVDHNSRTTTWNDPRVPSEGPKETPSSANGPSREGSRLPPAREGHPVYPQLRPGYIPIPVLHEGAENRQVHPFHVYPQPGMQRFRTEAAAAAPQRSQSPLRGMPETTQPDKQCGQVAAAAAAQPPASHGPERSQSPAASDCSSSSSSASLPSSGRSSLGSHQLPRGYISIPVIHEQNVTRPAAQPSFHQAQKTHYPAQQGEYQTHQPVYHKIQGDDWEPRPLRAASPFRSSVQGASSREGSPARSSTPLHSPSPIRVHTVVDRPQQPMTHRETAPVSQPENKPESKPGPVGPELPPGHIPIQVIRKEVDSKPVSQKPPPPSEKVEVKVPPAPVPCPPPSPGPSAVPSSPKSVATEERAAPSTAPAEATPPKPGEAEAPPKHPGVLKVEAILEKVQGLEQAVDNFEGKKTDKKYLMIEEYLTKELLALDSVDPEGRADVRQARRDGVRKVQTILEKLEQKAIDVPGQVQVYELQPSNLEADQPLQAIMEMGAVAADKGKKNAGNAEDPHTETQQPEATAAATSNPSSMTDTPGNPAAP
# UniProt P0DMV8: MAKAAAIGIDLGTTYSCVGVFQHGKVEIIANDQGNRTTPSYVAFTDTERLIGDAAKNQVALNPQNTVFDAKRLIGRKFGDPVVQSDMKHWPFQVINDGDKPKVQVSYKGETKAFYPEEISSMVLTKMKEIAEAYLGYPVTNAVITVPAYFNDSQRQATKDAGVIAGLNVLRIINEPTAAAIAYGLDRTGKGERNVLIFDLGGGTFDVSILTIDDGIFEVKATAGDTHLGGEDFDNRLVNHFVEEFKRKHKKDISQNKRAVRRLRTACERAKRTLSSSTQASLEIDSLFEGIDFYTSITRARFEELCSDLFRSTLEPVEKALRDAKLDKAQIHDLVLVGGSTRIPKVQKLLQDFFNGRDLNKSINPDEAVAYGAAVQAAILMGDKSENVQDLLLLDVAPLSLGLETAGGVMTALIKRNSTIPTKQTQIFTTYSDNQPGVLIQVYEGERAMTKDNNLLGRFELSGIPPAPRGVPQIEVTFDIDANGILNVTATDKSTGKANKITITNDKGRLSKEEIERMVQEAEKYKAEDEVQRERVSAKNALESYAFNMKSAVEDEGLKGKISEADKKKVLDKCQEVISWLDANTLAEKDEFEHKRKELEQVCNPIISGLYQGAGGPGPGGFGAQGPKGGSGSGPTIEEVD
# UniProt P11142: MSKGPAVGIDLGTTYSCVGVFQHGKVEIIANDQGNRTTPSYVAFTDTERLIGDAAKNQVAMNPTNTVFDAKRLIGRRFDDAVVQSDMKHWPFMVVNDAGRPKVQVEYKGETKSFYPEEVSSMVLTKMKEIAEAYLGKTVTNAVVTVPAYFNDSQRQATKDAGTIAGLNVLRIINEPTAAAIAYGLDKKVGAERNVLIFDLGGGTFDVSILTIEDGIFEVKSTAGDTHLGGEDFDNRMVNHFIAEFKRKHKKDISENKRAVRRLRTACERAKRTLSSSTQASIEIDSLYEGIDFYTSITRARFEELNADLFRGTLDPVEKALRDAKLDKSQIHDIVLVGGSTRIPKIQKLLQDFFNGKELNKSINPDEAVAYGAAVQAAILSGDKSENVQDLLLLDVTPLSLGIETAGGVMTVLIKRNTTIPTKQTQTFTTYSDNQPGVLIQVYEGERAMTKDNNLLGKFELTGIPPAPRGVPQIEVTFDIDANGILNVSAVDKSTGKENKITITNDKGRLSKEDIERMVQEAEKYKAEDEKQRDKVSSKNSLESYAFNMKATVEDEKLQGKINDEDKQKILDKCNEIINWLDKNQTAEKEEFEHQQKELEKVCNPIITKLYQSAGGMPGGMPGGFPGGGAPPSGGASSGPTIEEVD
# UniProt P49792: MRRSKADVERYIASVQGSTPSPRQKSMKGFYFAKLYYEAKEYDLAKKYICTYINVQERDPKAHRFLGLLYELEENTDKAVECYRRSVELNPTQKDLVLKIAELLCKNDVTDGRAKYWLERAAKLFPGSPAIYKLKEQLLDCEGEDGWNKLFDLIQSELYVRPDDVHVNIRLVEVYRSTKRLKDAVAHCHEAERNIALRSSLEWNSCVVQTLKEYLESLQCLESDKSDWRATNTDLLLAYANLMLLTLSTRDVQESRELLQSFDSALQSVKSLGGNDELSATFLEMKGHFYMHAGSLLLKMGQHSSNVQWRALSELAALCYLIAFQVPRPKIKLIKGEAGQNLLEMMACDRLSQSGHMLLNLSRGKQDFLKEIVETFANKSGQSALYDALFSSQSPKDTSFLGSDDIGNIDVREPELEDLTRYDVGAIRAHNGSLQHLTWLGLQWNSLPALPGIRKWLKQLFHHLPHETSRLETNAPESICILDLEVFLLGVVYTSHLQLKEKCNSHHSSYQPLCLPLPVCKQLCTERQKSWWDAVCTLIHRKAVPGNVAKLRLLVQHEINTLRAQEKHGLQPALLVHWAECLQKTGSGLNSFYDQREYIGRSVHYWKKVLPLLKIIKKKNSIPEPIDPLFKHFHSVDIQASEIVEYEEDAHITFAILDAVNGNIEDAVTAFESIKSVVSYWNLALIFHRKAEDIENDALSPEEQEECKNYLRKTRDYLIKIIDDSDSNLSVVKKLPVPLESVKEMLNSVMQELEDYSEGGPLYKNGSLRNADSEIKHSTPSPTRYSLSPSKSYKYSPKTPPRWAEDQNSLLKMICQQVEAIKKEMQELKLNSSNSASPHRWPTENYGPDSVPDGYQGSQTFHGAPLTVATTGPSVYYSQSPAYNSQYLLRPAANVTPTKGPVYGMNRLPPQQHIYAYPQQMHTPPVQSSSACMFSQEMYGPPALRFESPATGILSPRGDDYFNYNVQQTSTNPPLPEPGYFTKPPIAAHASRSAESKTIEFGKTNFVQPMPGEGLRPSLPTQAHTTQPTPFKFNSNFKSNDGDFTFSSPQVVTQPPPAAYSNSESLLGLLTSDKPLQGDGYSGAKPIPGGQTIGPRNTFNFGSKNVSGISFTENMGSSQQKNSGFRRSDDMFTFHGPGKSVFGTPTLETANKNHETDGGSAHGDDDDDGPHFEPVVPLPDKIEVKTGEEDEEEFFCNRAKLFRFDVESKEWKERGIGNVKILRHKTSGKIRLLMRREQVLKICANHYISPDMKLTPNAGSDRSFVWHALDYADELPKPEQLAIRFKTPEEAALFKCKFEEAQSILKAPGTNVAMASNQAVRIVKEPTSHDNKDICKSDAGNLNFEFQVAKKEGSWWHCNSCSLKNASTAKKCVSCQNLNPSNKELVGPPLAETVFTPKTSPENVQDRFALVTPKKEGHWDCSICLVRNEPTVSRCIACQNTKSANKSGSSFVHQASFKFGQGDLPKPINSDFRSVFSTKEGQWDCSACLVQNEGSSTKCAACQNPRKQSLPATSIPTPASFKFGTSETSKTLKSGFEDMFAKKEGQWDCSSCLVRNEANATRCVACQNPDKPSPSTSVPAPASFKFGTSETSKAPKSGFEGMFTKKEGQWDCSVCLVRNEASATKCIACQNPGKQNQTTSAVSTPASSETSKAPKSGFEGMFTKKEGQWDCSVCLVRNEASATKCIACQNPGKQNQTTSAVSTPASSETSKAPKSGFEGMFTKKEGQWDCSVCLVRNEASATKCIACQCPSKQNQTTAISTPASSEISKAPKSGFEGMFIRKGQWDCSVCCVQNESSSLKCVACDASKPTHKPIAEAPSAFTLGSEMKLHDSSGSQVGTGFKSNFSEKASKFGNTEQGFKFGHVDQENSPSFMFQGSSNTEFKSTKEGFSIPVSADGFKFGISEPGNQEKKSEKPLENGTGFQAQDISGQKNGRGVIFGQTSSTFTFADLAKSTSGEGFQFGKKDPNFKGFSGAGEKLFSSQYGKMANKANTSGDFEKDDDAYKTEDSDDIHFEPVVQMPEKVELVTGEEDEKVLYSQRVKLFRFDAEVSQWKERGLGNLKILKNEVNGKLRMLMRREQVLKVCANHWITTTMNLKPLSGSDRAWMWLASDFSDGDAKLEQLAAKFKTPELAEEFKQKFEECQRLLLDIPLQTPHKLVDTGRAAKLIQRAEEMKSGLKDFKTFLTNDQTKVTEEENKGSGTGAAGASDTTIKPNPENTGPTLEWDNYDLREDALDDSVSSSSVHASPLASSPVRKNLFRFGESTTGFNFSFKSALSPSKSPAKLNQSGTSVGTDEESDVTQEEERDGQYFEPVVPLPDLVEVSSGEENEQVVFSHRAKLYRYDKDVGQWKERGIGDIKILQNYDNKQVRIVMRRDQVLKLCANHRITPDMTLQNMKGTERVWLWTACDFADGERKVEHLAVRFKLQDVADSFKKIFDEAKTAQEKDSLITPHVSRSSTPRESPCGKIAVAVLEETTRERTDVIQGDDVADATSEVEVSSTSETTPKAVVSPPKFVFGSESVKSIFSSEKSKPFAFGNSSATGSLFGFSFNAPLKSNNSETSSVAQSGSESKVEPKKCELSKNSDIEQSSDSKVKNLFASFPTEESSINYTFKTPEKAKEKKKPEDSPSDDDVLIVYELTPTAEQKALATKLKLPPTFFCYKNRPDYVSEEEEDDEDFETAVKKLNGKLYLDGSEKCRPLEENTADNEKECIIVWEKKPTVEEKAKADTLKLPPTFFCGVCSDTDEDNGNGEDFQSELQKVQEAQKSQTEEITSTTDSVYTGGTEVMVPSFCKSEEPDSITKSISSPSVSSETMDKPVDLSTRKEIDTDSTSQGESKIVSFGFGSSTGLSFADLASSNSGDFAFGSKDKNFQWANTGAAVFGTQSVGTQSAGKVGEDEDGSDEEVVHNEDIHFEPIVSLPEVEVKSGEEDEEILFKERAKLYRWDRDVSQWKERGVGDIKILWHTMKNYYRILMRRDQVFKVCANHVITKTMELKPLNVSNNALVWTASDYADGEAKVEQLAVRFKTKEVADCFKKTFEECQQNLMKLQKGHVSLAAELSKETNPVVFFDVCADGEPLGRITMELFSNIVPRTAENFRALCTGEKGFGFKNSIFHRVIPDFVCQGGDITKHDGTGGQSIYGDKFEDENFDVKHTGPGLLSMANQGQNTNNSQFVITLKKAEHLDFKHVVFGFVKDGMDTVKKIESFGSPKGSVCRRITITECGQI
# UniProt P51784: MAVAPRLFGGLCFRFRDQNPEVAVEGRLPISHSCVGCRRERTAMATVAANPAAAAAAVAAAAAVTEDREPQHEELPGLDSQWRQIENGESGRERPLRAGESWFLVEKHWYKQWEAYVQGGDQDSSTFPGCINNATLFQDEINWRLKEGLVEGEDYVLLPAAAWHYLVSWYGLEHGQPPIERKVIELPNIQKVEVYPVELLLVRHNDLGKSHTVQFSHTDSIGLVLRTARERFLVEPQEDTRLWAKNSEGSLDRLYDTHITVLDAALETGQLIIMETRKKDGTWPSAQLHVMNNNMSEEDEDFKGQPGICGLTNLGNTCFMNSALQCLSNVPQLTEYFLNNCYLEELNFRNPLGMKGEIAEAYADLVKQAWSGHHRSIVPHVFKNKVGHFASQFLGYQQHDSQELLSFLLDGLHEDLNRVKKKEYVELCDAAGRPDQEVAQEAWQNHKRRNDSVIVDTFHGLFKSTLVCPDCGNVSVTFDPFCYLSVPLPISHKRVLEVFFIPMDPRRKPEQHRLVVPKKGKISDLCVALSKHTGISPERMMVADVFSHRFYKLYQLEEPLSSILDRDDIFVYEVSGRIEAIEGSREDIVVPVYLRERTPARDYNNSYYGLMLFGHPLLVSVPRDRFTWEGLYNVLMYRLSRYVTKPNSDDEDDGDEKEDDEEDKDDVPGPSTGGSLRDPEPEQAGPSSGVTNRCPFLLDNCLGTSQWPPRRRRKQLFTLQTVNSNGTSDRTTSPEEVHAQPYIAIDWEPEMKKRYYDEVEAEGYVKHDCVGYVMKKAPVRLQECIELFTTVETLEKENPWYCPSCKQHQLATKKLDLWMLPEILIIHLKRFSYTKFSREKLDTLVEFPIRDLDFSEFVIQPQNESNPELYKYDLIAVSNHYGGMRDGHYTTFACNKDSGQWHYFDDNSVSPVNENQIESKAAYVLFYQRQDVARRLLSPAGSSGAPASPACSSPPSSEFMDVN
# These are yes or no findings as the source states them, for the method shown. Binding seen in cells or lysates may run through a third protein. These calls come from enrichment with a bait or labelling near it, and not all partners need be listed. A no says only that the protein was not detected with the bait.
# How the values were obtained:
# Test in all cases: affinity purification with mass spectrometry; HaloTag-fused CA3 or mutCA3 expressed in HEK293T; cleared lysate diluted in 1x Tris-buffered saline pH 7.5, incubated with HaloLink Resin at room temperature for 15 min, four washes, SDS elution; LC-MS label-free quantitation against the HaloTag vector only control (triplicate)
# [1] = molecular target: N-terminus-tagged mutCA3 (carbonic anhydrase 3 with both surface-exposed cysteines mutated to serine, HaloTag at the N-terminus) (UniProt P07451)
# [2] = molecular target: C-terminus-tagged mutCA3 (carbonic anhydrase 3 with both surface-exposed cysteines mutated to serine, HaloTag at the C-terminus) (UniProt P07451)
# [3] = molecular target: C-terminus-tagged CA3 WT (carbonic anhydrase 3, wild type, HaloTag at the C-terminus) (UniProt P07451)
# [4] = molecular target: N-terminus-tagged CA3 WT (carbonic anhydrase 3, wild type, HaloTag at the N-terminus) (UniProt P07451)
binding [1],binding [2],binding [3],binding [4],Substance
no binding,no binding,no binding,–,Bcl2-Associated Athanogene 3 (from UniProt O95817 1-575)
binds,binds,binds,binds,Heat shock 70 kDa protein 1A (from UniProt P0DMV8 1-641)
binds,binds,binds,binds,Heat shock 70 kDa protein 8 (from UniProt P11142 1-646)
no binding,–,no binding,–,Keratin 6A (from UniProt P02538 1-564)
no binding,no binding,no binding,no binding,RAS-related nuclear protein binding protein 2 (from UniProt P49792 1-3224)
no binding,no binding,no binding,no binding,Ubiquitin specific protease 11 (from UniProt P51784 1-963) (enzyme)
